# Laboratory results as given in article PMC10907165, “Discovery and structural characterization of the D-box, a conserved TonB motif that couples an inner-membrane motor to outer-membrane transport” (The Journal of Biological Chemistry, 2024).
# The chains behind the UniProt entries cited, without tags or fusion partners. Where a name states a change or a piece, a line headed by the entry shows the natural chain unless it says otherwise.
# UniProt P0ABV2: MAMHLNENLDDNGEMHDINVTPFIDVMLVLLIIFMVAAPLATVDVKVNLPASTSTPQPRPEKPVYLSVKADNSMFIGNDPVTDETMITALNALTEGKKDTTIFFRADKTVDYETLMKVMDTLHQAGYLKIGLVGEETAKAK
# B1: D-box peptide (residues 43 to 54 of E. coli TonB) (peptide)
# peptide: QPISVTMVTPAD
# notes: TonB, E. coli, residues 43-54, holds the D-box motif; The description of the crystal structure numbers the peptide Gln-55 to Thr-63, that is 12 higher than the TonB numbers; also called TonB D-box peptide; source: synthetic peptide (VWR Scientific)
# Biological target: ExbD L132Q mutant (periplasmic domain) (E. coli) (UniProt P0ABV2)
# Assay: condition: 1 mM peptide injected into 100 uM ExbD protein; ITC; D-box peptide (1 mM) injected into 100 uM ExbD protein at 288 K; 10 mM MES pH 5.3, 60 mM NaCl; two-state binding model; both purified
binder,measurement,value
B1,binding,no binding

# Results are given in words; binding and its absence hold for the method and conditions named.
